{"source": "the supplement of paper PMC4604168 (melanoma cell lines)", "test_in_all_cases": "cleaved PARP positive nuclei fraction relative to DMSO control; melanoma cells; higher = more apoptosis", "details_in_all_cases": "library dose: low library concentration; 72 h", "key": {"WM115": {"tested_on": "WM115"}, "WM1716": {"tested_on": "WM1716"}, "WM1745": {"tested_on": "WM1745"}, "WM3526": {"tested_on": "WM3526"}, "WM3619": {"tested_on": "WM3619"}, "WM451Lu": {"tested_on": "WM451Lu"}}, "note": "This is one part of the list. Repeats are few or missing, and single values can be far off.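 Cells were imaged in 1,536-well plates, and nuclei stained with an antibody against cleaved PARP were counted against all DNA-stained nuclei to give the apoptosis fraction. Screening doses were chosen to leave most cells alive, and resting and induced cleaved-PARP levels differ strongly between cell lines.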", "data": [{"molecule": "N.N.[Cl][Pt][Cl]", "note": "[cisplatin] + CCCCCCCCCCCC1=C(O)C(=O)C=C(O)C1=O [Embelin] (first compound 1.6 µM, partner dose 1.2 µM)", "values": [{"measurement": "cleaved PARP positive nuclei fraction", "setting": "WM115", "value": 69.5, "unit": "%"}, {"measurement": "cleaved PARP positive nuclei fraction", "setting": "WM1716", "value": 45.1, "unit": "%"}, {"measurement": "cleaved PARP positive nuclei fraction", "setting": "WM1745", "value": 79.1, "unit": "%"}, {"measurement": "cleaved PARP positive nuclei fraction", "setting": "WM3526", "value": 51.4, "unit": "%"}, {"measurement": "cleaved PARP positive nuclei fraction", "setting": "WM3619", "value": 86.8, "unit": "%"}, {"measurement": "cleaved PARP positive nuclei fraction", "setting": "WM451Lu", "value": 60.2, "unit": "%"}]}, {"molecule": "O=C(O)c1ccc2c(c1)nc(Nc1cccc(Cl)c1)c1ccncc12", "note": "+ C/C(O)=C(\\C#N)C(=O)Nc1cc(Br)ccc1Br [LFM-A13] (first compound 0.4 µM, partner dose 2 µM)", "values": [{"measurement": "cleaved PARP positive nuclei fraction", "setting": "WM115", "value": 80.8, "unit": "%"}, {"measurement": "cleaved PARP positive nuclei fraction", "setting": "WM1716", "value": 95.7, "unit": "%"}, {"measurement": "cleaved PARP positive nuclei fraction", "setting": "WM1745", "value": 100, "unit": "%"}, {"measurement": "cleaved PARP positive nuclei fraction", "setting": "WM3526", "value": 136, "unit": "%"}, {"measurement": "cleaved PARP positive nuclei fraction", "setting": "WM3619", "value": 95, "unit": "%"}, {"measurement": "cleaved PARP positive nuclei fraction", "setting": "WM451Lu", "value": 195, "unit": "%"}]}, {"molecule": "C[C@]12O[C@H](C[C@]1(O)CO)n1c3ccccc3c3c4c(c5c6ccccc6n2c5c31)CNC4=O", "note": "[Lestaurtinib] + CO[C@@H]1[C@H](N(C)C(=O)c2ccccc2)C[C@H]2O[C@]1(C)n1c3ccccc3c3c4c(c5c6ccccc6n2c5c31)C(=O)NC4 [Midostaurin] (first compound 0.004 µM, partner dose 0.08 µM)", "values": [{"measurement": "cleaved PARP positive nuclei fraction", "setting": "WM115", "value": 111, "unit": "%"}, {"measurement": "cleaved PARP positive nuclei fraction", "setting": "WM1716", "value": 118, "unit": "%"}, {"measurement": "cleaved PARP positive nuclei fraction", "setting": "WM1745", "value": 97, "unit": "%"}, {"measurement": "cleaved PARP positive nuclei fraction", "setting": "WM3526", "value": 43.2, "unit": "%"}, {"measurement": "cleaved PARP positive nuclei fraction", "setting": "WM3619", "value": 109, "unit": "%"}, {"measurement": "cleaved PARP positive nuclei fraction", "setting": "WM451Lu", "value": 125, "unit": "%"}]}]}
